The supplement of paper PMC12764529
± gives the half width of the 95% confidence interval. The two proteases of the assay disagree for many of these sequences.

What was measured:
[1] = folding stability dG unfold from chymotrypsin proteolysis; higher = more stable
In short: (§1)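 Sequencing followed digestion of designed mini-proteins with trypsin and chymotrypsin, each at 11 concentrations in threefold dilutions together with a no-protease condition. The mini-proteins were under 80 residues, had no cysteine, sat in a PA-tagged cDNA display construct, and were kept only if AlphaFold2 dimer inter-PAE was above 15. From the counts, Bayesian fitting gave K50, and unfolding free energy was derived against a sequence-predicted unfolded-state K50 and a shared folded-state K50, per protease or combined.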

[2] = folding stability dG unfold from trypsin proteolysis; higher = more stable
Method: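 Folding stability of de novo designed mini-proteins (<80 aa, no Cys; designed by TrROS, TrMRF, ProteinMPNN and the joint model) was measured by cDNA display proteolysis with trypsin and chymotrypsin. Each protease was used at 11 concentrations in a threefold dilution series plus a no-protease condition. K50 was inferred by Bayesian fitting of sequencing counts, and dG unfold was derived against a sequence-predicted unfolded-state K50 (Tsuboyama et al. method). Sequences shown include variable-length N-terminal GS-type padding (SAGGSAGG...) inside a display construct carrying a PA tag. Rows were kept only if the AF2 dimer inter-PAE was >15, to exclude likely homo-oligomers.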

[3] = folding stability dG unfold (combined trypsin and chymotrypsin); higher = more stable
In short: as §1

Sequence	folding stability dG unfold [1] [kcal/mol]	folding stability dG unfold [2] [kcal/mol]	folding stability dG unfold [3] [kcal/mol]
SAGGSAGGSGMTTTLTTEPRPDSTVVTTTTTTPTSVTTTTTVYDPDGNVVSTTTTTTPLPATSSAGGSAGGS [r12_710_JUSTAS]	0.257 ± 0.018	1.73 ± 0.059	1.11 ± 0.028
SPIKINIEKDPEDPGTIKITFNYPDPQEARDFIRDIAEKLFGIKDMDVEHNPDNKTITHTIRLRPPGDPVSA [r9_1120_TrROS]	4.04 ± 0.15	1.85 ± 0.19	3.51 ± 0.34
MITLPNMSPEEVVKAIKEAAEAGDPLTVTVPLAPDRRAVVVAALRALPYVTEVRPLPDGSVIVEIDPALLGS [r1_324_JUSTAS]	3.522 ± 0.026	0.58 ± 0.048	3.19 ± 0.062
SAGGMVRVKATFLKKIGDRWETVTVDIVTDDPEEGIAAAKARAEAEGWELLEVTIYPTGDPEVAEKAASAGG [r13_949_JUSTAS]	5.22 ± 0.14	2.37 ± 0.071	4.73 ± 0.13
SAGGSAGGSAKTVVINIKDLKLSKDGKLTVEEIKKRIKELLKKKGIKKVTVKTVEELLKALKSAGGSAGGSA [r18_72_TrROS_Hall]	1.41 ± 0.086	0.898 ± 0.062	1.26 ± 0.074
SAGGSAKKKGKKKKIYIVKIEVTNPNGEKKTLTLEFESEEEAEKAAKELAKKGYKVKIELIKKEEISAGGSA [r15_906_TrROS_Hall]	4.36 ± 0.38	1.49 ± 0.074	3.5 ± 0.6
SAEMSPEERELLERLEELAKEAGVTVTIEVDEKTRRITITVEAPSEEKRRKLAEKLRELGLEVEVRPEPSAG [r14_284_TrROS_Hall]	2.62 ± 0.037	4.78 ± 0.12	4.66 ± 0.15
SAGMEIEIEVEMSEEEAERLAKELAERLRELFPGVKVEVEVRVERRPDGRVRVRVRIRIEPLPPGEPLLSAG [r5_936_TrROS_Hall]	2.07 ± 0.044	4.75 ± 0.2	3.9 ± 0.27
SAGGSAGGSAGGSGLPDEPVVTVTTETSIVEEGDGPVTVTTTTTTYPDGSVSTTLTTVASAGGSAGGSAGGS [r4_433_JUSTAS]	-0.0939 ± 0.086	2.25 ± 0.087	1.32 ± 0.13
SAGGSAGGKIKPGEKIEVTLKIVNKETGEEKTIKAEVEVVDGKLYIRFPDGSIQEIDLKDIEIESAGGSAGG [r6_436_TrROS_Hall]	3.53 ± 0.086	1.24 ± 0.03	3.09 ± 0.074
SAGGSAGGSAGGSDNKAILGDVPIKFYDKNGKPVITAKIGYFPDGRVVIYFPDGSKIEASAGGSAGGSAGGS [r10_972_TrMRF]	1.04 ± 0.023	1.48 ± 0.04	1.25 ± 0.038
SAGGSAGGSAGGYFIRINNGRTFPFPSPEDAEEIVKTIARPFGHPDMTIEIYRMPPEQFPSAGGSAGGSAGG [r7_839_TrROS]	-0.1 ± 0.24	-0.0675 ± 0.22	0.0194 ± 0.18
SAGGSAMVSLEEAKEATLREVKAALGFSPDATPEELRARGVPVRVPITVRDEKGNVIAELELELPGSAGGSA [r15_391_JUSTAS]	0.571 ± 0.046	-0.118 ± 0.04	0.37 ± 0.039
SAGGSAPNKWKTVDIEFMFPPDNLEEFVDEISKLPGIKASIEPVEYDPEGMYWMKIDITIPPGMKISAGGSA [r15_441_TrROS]	1.74 ± 0.12	1.16 ± 0.048	1.64 ± 0.21
SAGGSAGGSMIIRIKTENGEEIEIEAESEEEAKKAAEELKKELEEKGYKIEEVEIYEIPEEELSAGGSAGGS [r12_301_TrROS_Hall]	2.32 ± 0.13	1.13 ± 0.076	2.05 ± 0.26
SAGGSAGGSAPDDDQPPEEVEPKPVTIRIPFPLDDLPAKEAKKYAEEFAKRLPDYKVEVDAWSAGGSAGGSA [r18_499_TrROS]	3.46 ± 0.21	-0.476 ± 0.57	
SKIEITPDGSVRITLTLTFTLEDGYEITIKVEVTINVDGEISVSVSIEIRPLPPPPPEKVVVLDEDGKLVSA [r9_1168_TrROS_Hall]	5.36 ± 0.3	2.73 ± 0.17	
SAGGSAGGSAGGLKPGDPVIIPIRIEMEHYDPGGGKPIHEHEFPITILIPPGQNPEEITFSAGGSAGGSAGG [r7_591_TrROS]		1.16 ± 0.057	0.61 ± 0.071
SPLGPGGVRVVLGEVRFERHPDGTVRVEAEFTIEVARPDGPGAVIRVRLEATVPPGGGLRVRVKEVEIRPSA [r9_838_TrMRF]		3.27 ± 0.12	4.71 ± 0.15
SAGGSAGGSAGGSVIVTNSPEDADIVAGLLREVLSALVPEPATAENVPVVIEVVDDNVTSAGGSAGGSAGGS [r4_498_TrMRF]		1.07 ± 0.023	0.152 ± 0.094
SAGGSAGGSSVAYVKDPNNPVPVKLPVEAVLEAIESGKPTDLKDPSGDEVVTITNPTDLVIEDSSAGGSAGG [r6_509_JUSTAS]		1.12 ± 0.075	0.323 ± 0.059

Reprinted from the entries so far for reference:
Sequence	folding stability dG unfold [1] [kcal/mol]	folding stability dG unfold [2] [kcal/mol]	folding stability dG unfold [3] [kcal/mol]
SAGGMVRVKATFLKKIGDRWETVTVDIVTDDPEEGIAAAKARAEAEGWELLEVTIYPTGDPEVAEKAASAGG [r13_949_JUSTAS]	5.22 ± 0.14	2.37 ± 0.071	4.73 ± 0.13
SAGGSAGGSAKTVVINIKDLKLSKDGKLTVEEIKKRIKELLKKKGIKKVTVKTVEELLKALKSAGGSAGGSA [r18_72_TrROS_Hall]	1.41 ± 0.086	0.898 ± 0.062	1.26 ± 0.074
